{"source": "patent US8361740B2", "about": "“Peptide standards” (King's College London, priority 2007, dated 2013)", "tested_on": "trypsin", "experiment": "Tryptic digestion of peptide standards, released T6 peptide (LVNEVTEFAK) measured by LC-MSMS (MRM)", "assay_type": "biochemical", "conditions": "for Analyte Peak Area (counts): trypsin 37° C. 30 min; for signal for LVNEVTEFAK after tryptic digestion: 3 different MRMs, LVNEVTEFAK* as internal standard", "description": "The first experiment was test the hypothesis that the LVNEVTEFAKT (SEQ ID NO:7) peptide is cleaved to LVNEVTEFAK (SEQ ID NO:10) by trypsin as efficiently as the longer peptides. Using LVNEVTEFAK* (SEQ ID NO:10) as the internal standard peptides (1-5, and 8) were digested using standard protocol. […] This implies that any internal standard peptide where cysteine is the N-terminal amino acid will require the next amino acid in addition to be effective.\nExperiment to Determine Number of Amino Acids Required Following Trypsin Digest Site for Digestion.\nAssay 50 μl peptide 1-6 & 8 (blank was deionised water)+50 μl internal std Add 10 μl acetonitrile & 10 μl 1% formic acid, vortex mix, and stand for 5 min Add 6 μl […] ammonium bicarbonate & 5 μl trypsin (5 mg/l), vortex mix, and pulse centrifuge (6 sec) Incubate at 37° C. for 30 min & add 500 μl HPLC solvent (acetonitrile:water 1:1 with 0.025% formic acid) Vortex mix and transfer to 96-deep well polypropylene plate Sample volume, 5 μl; flow rate, 500 μl/min Chromatography—teicoplanin guard column MSMS parameters—generic peptide ionisation and doubly charged ion fragmentation T6 doubly charged ion m/z 575.4 and internal std m/z 579.4 Product ions (m/z): 937.4, 823.4, 694.4—internal std (m/z): 945.4, 831.4, 702.4 (150 ms/MRM) Results", "key": {"[1]": {"conditions": "analyte T6 694 (m/z 575.4/694.4)"}, "[2]": {"conditions": "analyte T6 694 / internal std LVNEVTEFAK*"}, "[3]": {"conditions": "analyte T6 823 (m/z 575.4/823.4)"}, "[4]": {"conditions": "analyte T6 823 / internal std LVNEVTEFAK*"}, "[5]": {"conditions": "analyte T6 937 (m/z 575.4/937.4)"}, "[6]": {"conditions": "analyte T6 937 / internal std LVNEVTEFAK*"}}, "note": "Part of at least one peptide drawing is inferred or uncertain, most often the ends. Some entries repeat one wording, which the source may state once for all of them. Residues, ends and D or L forms follow the SMILES beside them.", "data": [{"smiles": "CSCC[C@H](NC(=O)[C@@H](NC(=O)[C@@H](NC(=O)[C@H](CS)NC(=O)[C@H](CC(=O)O)NC(=O)[C@H](CC(N)=O)NC(=O)[C@H](CCCCN)NC(=O)[C@H](C)NC(=O)[C@H](Cc1ccccc1)NC(=O)[C@H](CCC(=O)O)NC(=O)[C@@H](NC(=O)[C@@H](NC(=O)[C@H](CCC(=O)O)NC(=O)[C@H](CC(N)=O)NC(=O)[C@@H](NC(=O)[C@@H](N)CC(C)C)C(C)C)C(C)C)[C@@H](C)O)[C@@H](C)O)[C@@H](C)O)C(=O)O", "note": "[compound 6, LVNEVTEFAKNDCTTM] (H-LVNEVTEFAKNDCTTM-OH)", "values": [{"measurement": "AP/IS peak area", "setting": "analyte T6 694", "result": 0.036}, {"measurement": "Analyte Peak Area/μmol/l peptide (AP)", "setting": "analyte T6 694", "result": 4625}, {"measurement": "Analyte Peak Area (counts)", "setting": "[1]", "result": 51000, "unit": "counts"}, {"measurement": "Area Ratio", "setting": "[2]", "result": 0.395}, {"measurement": "AP/IS peak area", "setting": "analyte T6 823", "result": 0.038}, {"measurement": "Analyte Peak Area/μmol/l peptide (AP)", "setting": "analyte T6 823", "result": 1805}, {"measurement": "Analyte Peak Area (counts)", "setting": "[3]", "result": 19900, "unit": "counts"}, {"measurement": "Area Ratio", "setting": "[4]", "result": 0.422}, {"measurement": "AP/IS peak area", "setting": "analyte T6 937", "result": 0.039}, {"measurement": "Analyte Peak Area/μmol/l peptide (AP)", "setting": "analyte T6 937", "result": 5151}, {"measurement": "Analyte Peak Area (counts)", "setting": "[5]", "result": 56800, "unit": "counts"}, {"measurement": "Area Ratio", "setting": "[6]", "result": 0.426}]}, {"smiles": "CC(C)C[C@H](N)C(=O)N[C@H](C(=O)N[C@@H](CC(N)=O)C(=O)N[C@@H](CCC(=O)O)C(=O)N[C@H](C(=O)N[C@H](C(=O)N[C@@H](CCC(=O)O)C(=O)N[C@@H](Cc1ccccc1)C(=O)N[C@@H](C)C(=O)N[C@@H](CCCCN)C(=O)N[C@H](C(=O)O)[C@@H](C)O)[C@@H](C)O)C(C)C)C(C)C", "note": "[peptide 1, LVNEVTEFAKT] (H-LVNEVTEFAKT-OH)", "values": [{"measurement": "signal for LVNEVTEFAK after tryptic digestion", "result": "equivalent signal"}, {"measurement": "AP/IS peak area", "setting": "analyte T6 694", "result": 0.064}, {"measurement": "Analyte Peak Area/μmol/l peptide (AP)", "setting": "analyte T6 694", "result": 7748}, {"measurement": "Analyte Peak Area (counts)", "setting": "[1]", "result": 124000, "unit": "counts"}, {"measurement": "Area Ratio", "setting": "[2]", "result": 1.01}, {"measurement": "AP/IS peak area", "setting": "analyte T6 823", "result": 0.070}, {"measurement": "Analyte Peak Area/μmol/l peptide (AP)", "setting": "analyte T6 823", "result": 3087}, {"measurement": "Analyte Peak Area (counts)", "setting": "[3]", "result": 49400, "unit": "counts"}, {"measurement": "Area Ratio", "setting": "[4]", "result": 1.13}, {"measurement": "AP/IS peak area", "setting": "analyte T6 937", "result": 0.070}, {"measurement": "Analyte Peak Area/μmol/l peptide (AP)", "setting": "analyte T6 937", "result": 8998}, {"measurement": "Analyte Peak Area (counts)", "setting": "[5]", "result": 144000, "unit": "counts"}, {"measurement": "Area Ratio", "setting": "[6]", "result": 1.13}]}, {"smiles": "CC(C)C[C@H](N)C(=O)N[C@H](C(=O)N[C@@H](CC(N)=O)C(=O)N[C@@H](CCC(=O)O)C(=O)N[C@H](C(=O)N[C@H](C(=O)N[C@@H](CCC(=O)O)C(=O)N[C@@H](Cc1ccccc1)C(=O)N[C@@H](C)C(=O)N[C@@H](CCCCN)C(=O)N[C@H](C(=O)N[C@@H](CS)C(=O)O)[C@@H](C)O)[C@@H](C)O)C(C)C)C(C)C", "note": "[peptide 2, LVNEVTEFAKTC] (H-LVNEVTEFAKTC-OH)", "values": [{"measurement": "signal for LVNEVTEFAK after tryptic digestion", "result": "virtually no signal"}, {"measurement": "AP/IS peak area", "setting": "analyte T6 694", "result": 0.001}, {"measurement": "Analyte Peak Area/μmol/l peptide (AP)", "setting": "analyte T6 694", "result": 91}, {"measurement": "Analyte Peak Area (counts)", "setting": "[1]", "result": 1350, "unit": "counts"}, {"measurement": "Area Ratio", "setting": "[2]", "result": 0.0104}, {"measurement": "AP/IS peak area", "setting": "analyte T6 823", "result": 0.001}, {"measurement": "Analyte Peak Area/μmol/l peptide (AP)", "setting": "analyte T6 823", "result": 32}, {"measurement": "Analyte Peak Area (counts)", "setting": "[3]", "result": 469, "unit": "counts"}, {"measurement": "Area Ratio", "setting": "[4]", "result": 0.0102}, {"measurement": "AP/IS peak area", "setting": "analyte T6 937", "result": 0.001}, {"measurement": "Analyte Peak Area/μmol/l peptide (AP)", "setting": "analyte T6 937", "result": 119}, {"measurement": "Analyte Peak Area (counts)", "setting": "[5]", "result": 1760, "unit": "counts"}, {"measurement": "Area Ratio", "setting": "[6]", "result": 0.0138}]}, {"smiles": "CC(C)C[C@H](N)C(=O)N[C@H](C(=O)N[C@@H](CC(N)=O)C(=O)N[C@@H](CCC(=O)O)C(=O)N[C@H](C(=O)N[C@H](C(=O)N[C@@H](CCC(=O)O)C(=O)N[C@@H](Cc1ccccc1)C(=O)N[C@@H](C)C(=O)N[C@@H](CCCCN)C(=O)N[C@H](C(=O)N[C@@H](CS)C(=O)N[C@H](C(=O)O)C(C)C)[C@@H](C)O)[C@@H](C)O)C(C)C)C(C)C", "note": "[peptide 3, LVNEVTEFAKTCV] (H-LVNEVTEFAKTCV-OH)", "values": [{"measurement": "signal for LVNEVTEFAK after tryptic digestion", "result": "equivalent signal"}, {"measurement": "AP/IS peak area", "setting": "analyte T6 694", "result": 0.049}, {"measurement": "Analyte Peak Area/μmol/l peptide (AP)", "setting": "analyte T6 694", "result": 6133}, {"measurement": "Analyte Peak Area (counts)", "setting": "[1]", "result": 84500, "unit": "counts"}, {"measurement": "Area Ratio", "setting": "[2]", "result": 0.669}, {"measurement": "AP/IS peak area", "setting": "analyte T6 823", "result": 0.050}, {"measurement": "Analyte Peak Area/μmol/l peptide (AP)", "setting": "analyte T6 823", "result": 2330}, {"measurement": "Analyte Peak Area (counts)", "setting": "[3]", "result": 32100, "unit": "counts"}, {"measurement": "Area Ratio", "setting": "[4]", "result": 0.687}, {"measurement": "AP/IS peak area", "setting": "analyte T6 937", "result": 0.052}, {"measurement": "Analyte Peak Area/μmol/l peptide (AP)", "setting": "analyte T6 937", "result": 6867}, {"measurement": "Analyte Peak Area (counts)", "setting": "[5]", "result": 94600, "unit": "counts"}, {"measurement": "Area Ratio", "setting": "[6]", "result": 0.712}]}, {"smiles": "CC(C)C[C@H](N)C(=O)N[C@H](C(=O)N[C@@H](CC(N)=O)C(=O)N[C@@H](CCC(=O)O)C(=O)N[C@H](C(=O)N[C@H](C(=O)N[C@@H](CCC(=O)O)C(=O)N[C@@H](Cc1ccccc1)C(=O)N[C@@H](C)C(=O)N[C@@H](CCCCN)C(=O)N[C@H](C(=O)N[C@@H](CS)C(=O)N[C@H](C(=O)N[C@@H](C)C(=O)O)C(C)C)[C@@H](C)O)[C@@H](C)O)C(C)C)C(C)C", "note": "[peptide 4, LVNEVTEFAKTCVA] (H-LVNEVTEFAKTCVA-OH)", "values": [{"measurement": "signal for LVNEVTEFAK after tryptic digestion", "result": "equivalent signal"}, {"measurement": "AP/IS peak area", "setting": "analyte T6 694", "result": 0.041}, {"measurement": "Analyte Peak Area/μmol/l peptide (AP)", "setting": "analyte T6 694", "result": 5178}, {"measurement": "Analyte Peak Area (counts)", "setting": "[1]", "result": 68000, "unit": "counts"}, {"measurement": "Area Ratio", "setting": "[2]", "result": 0.533}, {"measurement": "AP/IS peak area", "setting": "analyte T6 823", "result": 0.044}, {"measurement": "Analyte Peak Area/μmol/l peptide (AP)", "setting": "analyte T6 823", "result": 2048}, {"measurement": "Analyte Peak Area (counts)", "setting": "[3]", "result": 26900, "unit": "counts"}, {"measurement": "Area Ratio", "setting": "[4]", "result": 0.583}, {"measurement": "AP/IS peak area", "setting": "analyte T6 937", "result": 0.045}, {"measurement": "Analyte Peak Area/μmol/l peptide (AP)", "setting": "analyte T6 937", "result": 6213}, {"measurement": "Analyte Peak Area (counts)", "setting": "[5]", "result": 81600, "unit": "counts"}, {"measurement": "Area Ratio", "setting": "[6]", "result": 0.588}]}]}
